Source: patent US4229438A (Takeda Chemical Industries, Ltd., priority 1978, dated 1980)

Assay: general procedure: solution-phase peptide synthesis; DCC/HONB (ONB active esters)
Details: coupling step

Row | Substance | step yield [%]
1 | Cbz-AK(Boc)SQG[dA]SN-OtBu | 82
2 | Cbz-AK(Boc)SQG[dL]SN-OtBu | 72
3 | Cbz-AK(Boc)SQ[dA]GSN-OtBu | 87
4 | Cbz-AK(Boc)SQ[dF]GSN-OtBu | 86.3
5 | Cbz-AK(Boc)SQ[dL]GSN-OtBu | 77.2
6 | Cbz-AK(Boc)SQ[dS]GSN-OtBu | 86.1
7 | Cbz-K(Boc)SQGGSN-OtBu | 86.2
8 | Cbz-K(Boc)SQG[dA]SN-OtBu | 83
9 | Cbz-K(Boc)SQG[dL]SN-OtBu | 88
10 | Cbz-K(Boc)SQ[dA]GSN-OtBu | 80
11 | Cbz-K(Boc)SQ[dF]GSN-OtBu | 92.2
12 | Cbz-K(Boc)SQ[dL]GSN-OtBu | 75.2
13 | Cbz-K(Boc)SQ[dS]GSN-OtBu | 92.2
14 | Cbz-SQGGSN-OtBu | 83.9
15 | Cbz-SQG[dA]SN-OtBu | 81
16 | Cbz-SQG[dL]SN-OtBu | 87
17 | Cbz-SQ[dA]G-OtBu | 97
18 | Cbz-SQ[dA]GSN-OtBu | 87

Row | Substance | step yield [%]
19 | Cbz-SQ[dF]G-OtBu | 45.2
20 | Cbz-SQ[dF]GSN-OtBu | 86.2
21 | Cbz-SQ[dL]G-OtBu | 51.4
22 | Cbz-SQ[dL]GSN-OtBu | 82.1
23 | Cbz-SQ[dS]G-OtBu | 68.4
24 | Cbz-SQ[dS]GSN-OtBu | 83.7
25 | Cbz-[dA]K(Boc)SQG[dA]SN-OtBu | 81
26 | Cbz-[dA]K(Boc)SQ[dL]GSN-OtBu | 81.3
27 | [pGlu]AK(Boc)SQG[dA]SN-OtBu | 91
28 | [pGlu]AK(Boc)SQG[dL]SN-OtBu | 80
29 | [pGlu]AK(Boc)SQ[dA]GSN-OtBu | 80
30 | [pGlu]AK(Boc)SQ[dF]GSN-OtBu | 92.4
31 | [pGlu]AK(Boc)SQ[dL]GSN-OtBu | 97.6
32 | [pGlu]AK(Boc)SQ[dS]GSN-OtBu | 83.0
33 | [pGlu][dA]K(Boc)SQGGSN-OtBu | 78
34 | [pGlu][dA]K(Boc)SQG[dA]SN-OtBu | 93
35 | [pGlu][dA]K(Boc)SQ[dL]GSN-OtBu | 90.7

Same assay, conditions: late stage modification step

Row | Substance | step yield [%]
36 | Cbz-SQ[dA]G-OH | 85
37 | Cbz-SQ[dF]G-OH | 98.4
38 | Cbz-SQ[dL]G-OH | 100
39 | Cbz-SQ[dS]G-OH | 93.8
40 | PEPTIDE1{[Glp].A.K.S.Q.G.[dA].S.N}$$$$V2.0 | 62
41 | PEPTIDE1{[Glp].A.K.S.Q.[dA].G.S.N}$$$$V2.0 | 34
42 | PEPTIDE1{[Glp].[dA].K.S.Q.G.G.S.N}$$$$V2.0 | 68
43 | [pGlu]AKSQG[dL]SN-OH | 58
44 | [pGlu][dA]KSQG[dA]SN-OH | 34

Strings that start with PEPTIDE1 are HELM notation: dots part the residues, brackets hold end groups and non-standard residues. Non-standard residues stand in square brackets, D forms with d. *: point of attachment. pGlu = O=C1CC[C@@H](C(=O)O)N1; Cbz = O=C(OCc1ccccc1)*; Boc = CC(C)(C)OC(=O)*; OtBu = CC(C)(C)O*
